Reference: PubChem BioAssay AID330 (DTP/NCI, 2004)
The list does not hold the whole screen: it is rich in T/C values a quarter to a half above the control, in often repeated tests (any T/C) and in doses without a T/C. Further doses and runs are listed elsewhere. T/C gives the treated animals as a percentage of the vehicle group. Some doses have a count of surviving animals in place of a T/C: the source holds a T/C of zero for them, seemingly a mark for toxic or unscored doses. Some doses without a T/C left all or most animals alive at the check, yet need not have been tolerated: survival well below the control is almost never listed, so the zero probably covers shortened survival too. Survivors were counted at the toxicity check, usually on the fifth day, unless a day is given; later deaths do not show. Schedules are NCI's codes, taken here to give the interval after Q, in days (D) or hours (H), and the number of doses after X. Some entries hold several experiments; their values stand side by side, smallest first. For survival time, this PubChem deposit counts one and a half times the control or more as active, and values a quarter to a half above the control carry no call in these data; other NCI protocols may use other cut-offs.

Tested on: P388 leukemia ip, CD2F1 mice, survival T/C
Assay: NCI In Vivo Anticancer Drug Screen. Data for tumor model P388 Leukemia (intraperitoneal) in CD2F1 (CDF1) mice
Conditions: T/C endpoint: median survival time, higher T/C = longer survival
[1] = dose: 100.0 mg/kg/injection, schedule: Q04DX002 (ip), vehicle: Klucel (hydroxypropylcellulose) (HPC)
[2] = dose: 200.0 mg/kg/injection, schedule: Q04DX002 (ip), vehicle: Klucel (hydroxypropylcellulose) (HPC)
[3] = dose: 200.0 mg/kg/injection, schedule: Q04DX003 (ip), vehicle: Klucel (hydroxypropylcellulose) (HPC)
[4] = dose: 400.0 mg/kg/injection, schedule: Q04DX002 (ip), vehicle: Klucel (hydroxypropylcellulose) (HPC)
[5] = dose: 200.0 mg/kg/injection, schedule: Q04DX003 (ip), vehicle: saline with Tween-80
[6] = dose: 400.0 mg/kg/injection, schedule: Q04DX003 (ip), vehicle: saline with Tween-80
[7] = dose: 100.0 mg/kg/injection, schedule: Q01DX005 (ip), vehicle: Klucel (hydroxypropylcellulose) (HPC)
[8] = dose: 200.0 mg/kg/injection, schedule: Q01DX005 (ip), vehicle: Klucel (hydroxypropylcellulose) (HPC)
[9] = dose: 200.0 mg/kg/injection, schedule: Q01DX005 (ip), vehicle: saline with Tween-80

CCC[CH2][Sn]([CH2]CCC)[CH2]CCC.CCC[CH2][Sn]([CH2]CCC)[CH2]CCC
survivor count (dose: 12.5 mg/kg/injection, schedule: Q04DX002 (ip), vehicle: saline with Tween-80): 2 of 6
survivor count (dose: 25.0 mg/kg/injection, schedule: Q04DX002 (ip), vehicle: saline with Tween-80): 1 of 6 and 3 of 6
survivor count (dose: 25.0 mg/kg/injection, schedule: Q04DX003 (ip), vehicle: Klucel (hydroxypropylcellulose) (HPC)): 6 of 6
survivor count (dose: 50.0 mg/kg/injection, schedule: Q04DX002 (ip), vehicle: saline with Tween-80): 0 of 6
survivor count (dose: 50.0 mg/kg/injection, schedule: Q04DX003 (ip), vehicle: Klucel (hydroxypropylcellulose) (HPC)): 6 of 6
survivor count [1]: 1 of 6
survivor count (dose: 100.0 mg/kg/injection, schedule: Q04DX002 (ip), vehicle: saline with Tween-80): 0 of 6
survivor count [2]: 0 of 6
survivor count [3]: 6 of 6
survivor count [4]: 0 of 6

COc1ccc(C(SCC(N)C(=O)O)(c2ccccc2)c2ccccc2)cc1 (configuration not stated)
survivor count (dose: 150.0 mg/kg/injection, schedule: Q04DX003 (ip), vehicle: Klucel (hydroxypropylcellulose) (HPC)): 5 of 6

CC1=C(C2CO2)C(=O)C(C)=C(C2CO2)C1=O (configuration not stated)
survivor count (dose: 25.0 mg/kg/injection, schedule: Q04DX002 (ip), vehicle: Klucel (hydroxypropylcellulose) (HPC)): 1 of 6
survivor count (dose: 50.0 mg/kg/injection, schedule: Q04DX002 (ip), vehicle: Klucel (hydroxypropylcellulose) (HPC)): 0 of 6
survivor count [1]: 0 of 6
survivor count [2]: 0 of 6
survivor count [4]: 0 of 6

O=c1c2c([nH]c3c1c1[nH]c4c(c(=O)c1c1[nH]c5c(c(=O)c31)CCCC5)CCCC4)CCCC2
survivor count [5]: 6 of 6
survivor count [6]: 6 of 6

Cn1c2nc(=O)n(-c3ccccc3)c(=O)c-2nc2c1CCCC2
T/C (dose: 25.0 mg/kg/injection, schedule: Q01DX009 (ip), vehicle: saline with Tween-80): 135 % of control
T/C (dose: 50.0 mg/kg/injection, schedule: Q01DX009 (ip), vehicle: saline with Tween-80): 135 % of control
T/C (dose: 100.0 mg/kg/injection, schedule: Q01DX009 (ip), vehicle: saline with Tween-80): 137 % of control

[Cl][Pt+2][Cl].[NH-]CC1(C[NH-])CCC1
T/C (dose: 0.19 mg/kg/injection, schedule: Q01DX009 (ip), vehicle: suspension in saline): 129 % of control
T/C (dose: 0.75 mg/kg/injection, schedule: Q01DX005 (ip), vehicle: saline): 148 % of control
T/C (dose: 0.75 mg/kg/injection, schedule: Q01DX005 (ip), vehicle: suspension in saline): 147 % of control
T/C (dose: 0.75 mg/kg/injection, schedule: Q01DX009 (ip), vehicle: saline): 133 % of control
survivor count (dose: 12.0 mg/kg/injection, schedule: Q01DX005 (ip), vehicle: saline): 5 of 5
survivor count (dose: 12.0 mg/kg/injection, schedule: Q01DX009 (ip), vehicle: saline): 5 of 5

CC1(C)COC(=O)C(C#N)=C1CBr
survivor count [7]: 0 of 6
survivor count [8]: 0 of 6

O=C1NC(=O)/C(=C\c2ccccc2)C2=C1CCCC2
survivor count [7]: 2 of 6
survivor count [8]: 0 of 6

CN(C)CCC[n+]1cc2c3ccccc3c(N)cc2c2ccccc21
survivor count (dose: 50.0 mg/kg/injection, schedule: Q04DX003 (ip), vehicle: water): 6 of 6
survivor count (dose: 100.0 mg/kg/injection, schedule: Q04DX003 (ip), vehicle: water): 0 of 6

NC(=S)N/N=C/c1cn(-c2ccc([N+](=O)[O-])cc2)cn1
survivor count (dose: 100.0 mg/kg/injection, schedule: Q04DX003 (ip), vehicle: Klucel (hydroxypropylcellulose) (HPC)): 2 of 6
survivor count [3]: 0 of 6
survivor count (dose: 400.0 mg/kg/injection, schedule: Q04DX003 (ip), vehicle: Klucel (hydroxypropylcellulose) (HPC)): 0 of 6

CC(=O)O/C(C#N)=C1\CCCC\C1=C(\C#N)OC(C)=O
survivor count (dose: 100.0 mg/kg/injection, schedule: Q01DX001 (ip), vehicle: saline with Tween-80): 1 of 6
survivor count (dose: 200.0 mg/kg/injection, schedule: Q01DX001 (ip), vehicle: saline with Tween-80): 0 of 6
survivor count (dose: 400.0 mg/kg/injection, schedule: Q01DX001 (ip), vehicle: saline with Tween-80): 0 of 6

O=C(c1ccccc1)N1C=CN(C(=O)c2ccccc2)C(c2ccccc2)C1c1ccccc1 (configuration not stated)
survivor count (dose: 240.0 mg/kg/injection, schedule: Q01DX005 (ip), vehicle: Klucel (hydroxypropylcellulose) (HPC)): 6 of 6

Cc1cc2c3ccc(C)[n+](C)c3ccc2n1C
survivor count (dose: 5.0 mg/kg/injection, schedule: Q01DX010 (ip), vehicle: saline): 0 of 6
survivor count (dose: 10.0 mg/kg/injection, schedule: Q01DX010 (ip), vehicle: saline): 0 of 6

Cc1ccc(S(=O)(=O)OC2CCCCC2c2ccccc2)cc1 (configuration not stated)
survivor count (dose: 6.25 mg/kg/injection, schedule: Q01DX001 (ip), vehicle: Klucel (hydroxypropylcellulose) (HPC)): 6 of 6
survivor count (dose: 50.0 mg/kg/injection, schedule: Q01DX001 (ip), vehicle: Klucel (hydroxypropylcellulose) (HPC)): 6 of 6
survivor count (dose: 100.0 mg/kg/injection, schedule: Q01DX001 (ip), vehicle: Klucel (hydroxypropylcellulose) (HPC)): 6 of 6
survivor count (dose: 200.0 mg/kg/injection, schedule: Q01DX001 (ip), vehicle: Klucel (hydroxypropylcellulose) (HPC)): 6 of 6

Cc1cc2c(cc1C)-c1nn(-c3ccccc3)c(-c3ccc(Cl)cc3)c1CCO2
survivor count (dose: 100.0 mg/kg/injection, schedule: Q01DX005 (ip), vehicle: saline with Tween-80): 6 of 6
survivor count [9]: 6 of 6

CCOC(=O)C(=CNc1cc(C)ccn1)C(=O)OCC
survivor count (dose: 400.0 mg/kg/injection, schedule: Q04DX003 (ip), vehicle: saline): 1 of 6

CCOC(=O)C(C(=O)OCC)c1nc[nH]c1[N+](=O)[O-]
survivor count [5]: 6 of 6
survivor count [6]: 6 of 6

OCCN1CCN(CCCN2c3cc(Cl)ccc3Sc3ccsc32)CC1
survivor count [8]: 3 of 6

Cc1cc(N/N=C/c2c(C)n(C)n(-c3ccccc3)c2=O)c2cc3c(cc2n1)OCO3
survivor count (dose: 50.0 mg/kg/injection, schedule: Q01DX005 (ip), vehicle: Klucel (hydroxypropylcellulose) (HPC)): 0 of 6
survivor count [7]: 0 of 6
survivor count [8]: 0 of 6

CN(C)CCCNc1c2ccccc2nc2cccc([N+](=O)[O-])c12
T/C (dose: 0.03 mg/kg/injection, schedule: Q01DX009 (ip), vehicle: water): 126 % of control
survivor count (dose: 0.25 mg/kg/injection, schedule: Q01DX009 (ip), vehicle: water): 6 of 6
survivor count (dose: 0.5 mg/kg/injection, schedule: Q01DX009 (ip), vehicle: water): 5 of 6 and 6 of 6
survivor count (dose: 1.0 mg/kg/injection, schedule: Q01DX009 (ip), vehicle: water): 3 of 6
survivor count (dose: 500.0 micrograms/kg/injection, schedule: Q01DX009 (ip), vehicle: saline): 5 of 6
survivor count (dose: 1000.0 micrograms/kg/injection, schedule: Q01DX009 (ip), vehicle: saline): 4 of 6
survivor count (dose: 2000.0 micrograms/kg/injection, schedule: Q01DX009 (ip), vehicle: saline): 2 of 6
survivor count (dose: 4000.0 micrograms/kg/injection, schedule: Q01DX009 (ip), vehicle: saline): 0 of 6

CCn1c(=O)c2[nH]c(Cl)nc2n(C2CC2)c1=O
survivor count (dose: 200.0 mg/kg/injection, schedule: Q01DX009 (ip), vehicle: Klucel (hydroxypropylcellulose) (HPC)): 0 of 6

N/C(=N\OC1(c2ccccc2)OC(=O)C(=O)/C1=C(/O)c1ccccc1)c1ccccc1 (configuration not stated)
survivor count (dose: 240.0 mg/kg/injection, schedule: Q01DX005 (ip), vehicle: saline with Tween-80): 3 of 6

CCC(O)CC1OC2(CCC1C)CC1OC(=O)/C=C\C(C)(O)C(O)C(C)C(O)C(OC3CC(OC)C(O)C(C)O3)C(O)C(C)(O)CCC/C=C/C3CC(C)COC3(O)CC(O2)C1C (configuration not stated)
survivor count (dose: 4.0 mg/kg/injection, schedule: Q01DX005 (ip), vehicle: saline + alcohol): 0 of 6

CCCCCCCCCCCCCCCC1=NCCN1
survivor count [9]: 2 of 5
